These are yes or no findings as the source states them, for the method shown. In cells and extracts the contact can be indirect. Binding calls can cover weak binding; strength is not graded here.
Biological target: GST-Ceg1p OB domain (S. cerevisiae) (UniProt Q01159)
Test: pull-down; GST or GST-Ceg1p OB domain as bait; Cet1p forms translated in rabbit reticulocyte lysate with [35S]-methionine, lysate nuclease-treated; TNE buffer (20 mM Tris-HCl pH 7.5, 150 mM NaCl, 2 mM EDTA, 1% NP-40); SDS-PAGE, imaging plate; only the target purified

The chains behind the UniProt entries cited, without tags or fusion partners. Where a name states a change or a piece, a line headed by the entry shows the natural chain unless it says otherwise.
UniProt Q01159: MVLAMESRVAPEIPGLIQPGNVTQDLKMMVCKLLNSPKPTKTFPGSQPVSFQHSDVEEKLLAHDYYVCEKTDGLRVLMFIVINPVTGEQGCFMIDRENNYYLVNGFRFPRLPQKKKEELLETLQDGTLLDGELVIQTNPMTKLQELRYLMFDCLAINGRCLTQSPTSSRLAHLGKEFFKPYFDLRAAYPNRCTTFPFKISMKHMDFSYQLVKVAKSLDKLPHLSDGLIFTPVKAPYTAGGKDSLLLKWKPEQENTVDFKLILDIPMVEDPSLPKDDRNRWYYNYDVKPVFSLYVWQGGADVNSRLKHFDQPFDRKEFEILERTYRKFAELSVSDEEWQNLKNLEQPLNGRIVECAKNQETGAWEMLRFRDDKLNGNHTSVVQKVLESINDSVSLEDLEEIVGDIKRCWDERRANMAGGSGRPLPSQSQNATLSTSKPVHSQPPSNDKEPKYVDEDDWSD

| Binder | binding |
| --- | --- |
| Cet1(228–549)p (domain or fragment, UniProt O13297 228-549, [35S]-methionine label) VLNEISASSKPSKYRNVPIWAQKWKPTIKALQSINVKDLKIDPSFLNIIPDDDLTKSVQDWVYATIYSIAPELRSFIELEMKFGVIIDAKGPDRVNPPVSSQCVFTELDAHLTPNIDASLFKELSKYIRGISEVTENTGKFSIIESQTRDSVYRVGLSTQRPRFLRMSTDIKTGRVGQFIEKRHVAQLLLYSPKDSYDVKISLNLELPVPDNDPPEKYKSQSPISERTKDRVSYIHNDSCTRIDITKVENHNQNSKSRQSETTHEVELEINTPALLNAFDNITNDSKEYASLIRTFLNNGTIIRRKLSSLSYEIFEGSKKVM | binds |
| Cet1(4A)p (protein, UniProt O13297 1-549, [35S]-methionine label) MSYTDNPPQTKRALSLDDLVNHDENEKVKLQKLSEAANGSRPFAENLESDINQTETGQAAPIDNYKESTGHGSHSQKPKSRKSSNDDEETDTDDEMGASGEINFDSEMDFDYDKQHRNLLSNGSPPMNDGSDANAKLEKPSDDSIHQNSKSDEEQRIPKQGNEGNIASNYITQVPLQKQKQTEKKIAGNAVGSVVKKEEEANAAVDNIFEEKATLQSKKNNIKRDLEVLNEISASSKPSKYRNVPIAAAAAKPTIKALQSINVKDLKIDPSFLNIIPDDDLTKSVQDWVYATIYSIAPELRSFIELEMKFGVIIDAKGPDRVNPPVSSQCVFTELDAHLTPNIDASLFKELSKYIRGISEVTENTGKFSIIESQTRDSVYRVGLSTQRPRFLRMSTDIKTGRVGQFIEKRHVAQLLLYSPKDSYDVKISLNLELPVPDNDPPEKYKSQSPISERTKDRVSYIHNDSCTRIDITKVENHNQNSKSRQSETTHEVELEINTPALLNAFDNITNDSKEYASLIRTFLNNGTIIRRKLSSLSYEIFEGSKKVM | no binding |
